Some of the results follow. Shown are side measurements of this screen, not its main read-out; they come without a call. Most of these compounds were active or inconclusive in the main read-out, so they are no random draw. The note in brackets gives the kind of curve behind each potency; many fits are weak.

The experiment is described as follows: qHTS Assay for Identifying the Cell-Membrane Permeable IMPase Inhibitors. The settings on record: CHO-M1 cells, IP1 accumulation, HTRF TR-FRET ratio; measured here: donor channel 620 nm AC50.
`CCCCCCNS(=O)(=O)c1ccc(OC)c(OC)c1`: the AC50 is 1 µM [falling, partial curve].

Regarding `CCn1cc(CNC(=O)c2cc(-c3ccccc3OC)nc3ccccc23)c(C)n1`, the AC50 is 0.251 µM [falling, full curve, poor fit].

As for `CCOc1cc2[nH]c(=O)n(CCCN3CCCC3=O)c(=O)c2cc1OCC`, the concentration at half-maximal activity (AC50) is 0.0316 µM [falling, full curve, poor fit].

Take `Cc1ccc2c(CC(=O)O)coc2c1`: the half-maximal activity concentration (AC50) is 0.0316 µM [falling, full curve, poor fit].

As for `CC1=C(C(=O)Nc2ccc(F)cc2)C(c2ccc(N(C)C)cc2)NC(=O)N1` (configuration not stated), the AC50 was 35.5 µM [falling, single point].

On to `CCOc1ccccc1N1CCN(C(=O)C(Sc2ccccc2)c2ccccc2)CC1` (configuration not stated), for which the AC50 was 31.6 µM [rising, single point].

In the case of `CCCCCCOc1cccc(N)c1`, the AC50 was 2.51 µM [falling, partial curve].

As for `CC(=O)Nc1ccc(S(=O)(=O)N(c2cccnc2)S(=O)(=O)c2ccc(NC(C)=O)cc2)cc1`, the half-maximal activity concentration (AC50) is 10 µM [falling, partial curve, poor fit].

For `CNC(=O)OCc1cccc(COC(=O)NC)n1`, the AC50 is 0.0794 µM [rising, full curve, poor fit].

On to `N#C/C(=C\c1ccc(O)c(O)c1)C(N)=O`, for which the AC50 was 20 µM [falling, partial curve, poor fit].

In the case of `CCOC(=O)CSc1nc2c(c(=O)n(C)c(=O)n2C)n1CCCc1ccccc1`, the AC50 was 0.0126 µM [rising, partial curve, poor fit].

For `CCOC(=O)c1c(C)c(C#N)c2c3ccccc3ccn12`, the AC50 was 5.01 µM [rising, single point].

`Cc1cccc(NC(=O)c2cc3c(C)nn(-c4ccccc4)c3s2)c1`: the AC50 was 0.447 µM [falling, partial curve, poor fit].

As for `O=C(O)C1CCC(=O)N(C2CCCCC2)C1c1ccccc1` (configuration not stated), the AC50 was 5.01 µM [falling, single point].

With `CN(C)/C=N/C(=S)Nc1ccc(F)cc1`, the half-maximal activity concentration (AC50) is 1.12 µM [falling, full curve, poor fit].

Consider `Clc1ccc(-c2n[nH]c3c2CCC3)c(Cl)c1`, for which the AC50 is 0.158 µM [falling, full curve, poor fit].

On to `O=c1c2ccccc2nc(-c2ccc(Cl)cc2)n1CCCCOc1ccc(F)cc1`, for which the AC50 was 0.631 µM [falling, partial curve, poor fit].

For the compound `CCNC(=S)N/N=C/c1cc(Br)cc(Br)c1OC`, the AC50 is 2 µM [falling, full curve].

In the case of `CCC1CCCCN1C(=O)CSc1nc(-c2ccc(OC)cc2)cc(C(F)(F)F)n1` (configuration not stated), the AC50 was 3.16 µM [falling, full curve].

As for `CCOC(=O)C1CCCN(c2c(NCCCN3CCCC(C)C3)c(=O)c2=O)C1` (configuration not stated), the concentration at half-maximal activity (AC50) is 31.6 µM [falling, partial curve, poor fit].

In the case of `CCOC(=O)c1sc(C)c2c1NC(c1ccc(N(C)C)cc1)NC2=O` (configuration not stated), the AC50 is 5.01 µM [rising, full curve].

Turning to `CCCOC(=O)c1ccc(NC(=O)c2cnccn2)cc1`, the AC50 was 0.0251 µM [rising, full curve, poor fit].

For `CCOC(=O)c1cc(Br)c(=O)n2ccccc12`, the AC50 was 12.6 µM [rising, single point].

`CCOC(=O)c1c(-c2ccc(C)o2)csc1NC(=O)COC(=O)c1ccc(NC(N)=O)cc1`: the AC50 was 31.6 µM [rising, single point].

For `CCOc1ccc2cc(C#N)c(SCC(=O)NC(C)CC)nc2c1` (configuration not stated), the AC50 was 25.1 µM [rising, single point].

As to `O=C(CN(CCc1ccccc1)S(=O)(=O)c1ccccc1)NCc1ccc(Cl)cc1`, the AC50 is 3.16 µM [rising, single point].

On to `NS(=O)(=O)c1ccc(NC(=O)CN2CCN(Cc3ccccc3)CC2)cc1`, for which the AC50 was 0.00316 µM [falling, full curve, poor fit].

Regarding `CCOC(=O)c1ccc(NC(=O)C(C)N(c2ccc(OCC)cc2)S(C)(=O)=O)cc1` (configuration not stated), the AC50 was 1.12 µM [falling, full curve, poor fit].

For `CC1CCN(c2cc(N)c(Cl)cc2[N+](=O)[O-])CC1`, the AC50 is 3.16 µM [rising, full curve].

On to `Cc1cc(C)cc(Nc2nnc(-n3nc(C)cc3C)c3ccccc23)c1`, for which the AC50 is 20 µM [falling, partial curve, poor fit].

Turning to `Cn1cc(Cl)c(C(=O)Nc2nc3ccc(Cl)cc3s2)n1`, the AC50 is 31.6 µM [falling, single point].

On to `COc1cc(C)c(S(=O)(=O)Nc2ccccc2F)cc1C`, for which the concentration at half-maximal activity (AC50) is 0.126 µM [falling, full curve, poor fit].

With `Cc1nc(Cc2nnc(SCc3nc(N)nc(Nc4ccccc4C)n3)o2)cs1`, the AC50 was 0.631 µM [falling, partial curve, poor fit].

Regarding `CCOC(=O)/C(C#N)=C/c1ccc(OC(=O)c2ccco2)c(OCC)c1`, the AC50 is 17.8 µM [rising, partial curve].

Consider `Cc1nnc(NC(=O)Cn2cnc3c2c(=O)n(C)c(=O)n3C)s1`, for which the concentration at half-maximal activity (AC50) is 1 µM [falling, full curve].

In the case of `CC(C)CNC(=O)CSc1nnc(-c2cccc(S(=O)(=O)N3CCCCC3)c2)o1`, the AC50 is 0.794 µM [falling, full curve].

As to `COc1ccc(C(=O)/C=C/c2ccc(OC)c(COc3ccccc3F)c2)cc1`, the AC50 was 3.16 µM [rising, single point].

For the compound `CCCC(=O)N1CCc2cc(-c3nc(N)sc3C)ccc21`, the AC50 was 3.98 µM [rising, partial curve].

Turning to `Cc1ccccc1OCc1nnc(SCC(=O)N2c3ccccc3Sc3ccc(Cl)cc32)o1`, the AC50 was 0.158 µM [falling, full curve, poor fit].

With `COc1ccc(-c2cc(C(F)F)n3ncc(C(=O)N4CCN5CCCC5C4)c3n2)cc1` (configuration not stated), the AC50 is 3.98 µM [falling, full curve].

For the compound `Cc1ccccc1NC(=O)/C(=C/c1cccs1)NC(=O)c1ccco1`, the AC50 is 14.1 µM [falling, partial curve, poor fit].

In the case of `Cc1sc(NC(=O)c2ccco2)c(C(c2ccncc2)N2CCOCC2)c1C` (configuration not stated), the AC50 was 5.01 µM [rising, single point].

The values are drawn from PubChem BioAssay AID901 (National Center for Advancing Translational Sciences (NCATS), 2007).
